Source: PMC10415273
Results are given in words; binding and its absence hold for the method and conditions named. Binding seen in cells or lysates may run through a third protein. Some binding calls cover weakened binding; strength is not graded here. Values belong to the substance of their own block, whether it stands above or below them.

Chains of the proteins cited; added tags and fusions are not shown.
UniProt Q7Z434: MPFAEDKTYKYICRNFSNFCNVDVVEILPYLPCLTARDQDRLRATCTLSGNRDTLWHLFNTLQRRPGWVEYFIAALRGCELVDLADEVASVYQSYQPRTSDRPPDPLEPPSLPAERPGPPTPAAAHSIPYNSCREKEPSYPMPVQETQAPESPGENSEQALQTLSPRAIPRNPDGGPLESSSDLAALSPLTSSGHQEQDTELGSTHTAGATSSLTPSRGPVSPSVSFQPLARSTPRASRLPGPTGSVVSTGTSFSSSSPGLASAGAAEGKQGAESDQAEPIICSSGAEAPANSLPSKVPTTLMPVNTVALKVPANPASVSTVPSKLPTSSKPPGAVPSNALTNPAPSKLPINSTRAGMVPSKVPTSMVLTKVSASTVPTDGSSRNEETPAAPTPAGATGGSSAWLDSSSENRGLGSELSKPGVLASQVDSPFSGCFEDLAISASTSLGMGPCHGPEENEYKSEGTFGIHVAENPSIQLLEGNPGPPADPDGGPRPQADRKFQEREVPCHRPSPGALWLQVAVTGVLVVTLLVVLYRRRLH
UniProt O00463: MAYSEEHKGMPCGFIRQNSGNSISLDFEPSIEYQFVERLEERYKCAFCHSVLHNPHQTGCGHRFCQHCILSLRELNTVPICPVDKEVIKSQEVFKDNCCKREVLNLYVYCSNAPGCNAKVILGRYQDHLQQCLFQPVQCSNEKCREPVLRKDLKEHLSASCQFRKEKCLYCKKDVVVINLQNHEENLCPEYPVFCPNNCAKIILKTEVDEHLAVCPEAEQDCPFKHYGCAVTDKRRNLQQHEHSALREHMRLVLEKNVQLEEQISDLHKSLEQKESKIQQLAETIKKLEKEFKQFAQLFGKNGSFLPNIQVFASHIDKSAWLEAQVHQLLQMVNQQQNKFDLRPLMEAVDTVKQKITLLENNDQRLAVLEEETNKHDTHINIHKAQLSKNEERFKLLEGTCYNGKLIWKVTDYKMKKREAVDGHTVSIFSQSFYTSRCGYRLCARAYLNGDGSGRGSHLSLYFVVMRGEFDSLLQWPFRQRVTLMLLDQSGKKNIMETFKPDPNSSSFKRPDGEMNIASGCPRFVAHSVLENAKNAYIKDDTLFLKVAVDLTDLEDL
UniProt O14744: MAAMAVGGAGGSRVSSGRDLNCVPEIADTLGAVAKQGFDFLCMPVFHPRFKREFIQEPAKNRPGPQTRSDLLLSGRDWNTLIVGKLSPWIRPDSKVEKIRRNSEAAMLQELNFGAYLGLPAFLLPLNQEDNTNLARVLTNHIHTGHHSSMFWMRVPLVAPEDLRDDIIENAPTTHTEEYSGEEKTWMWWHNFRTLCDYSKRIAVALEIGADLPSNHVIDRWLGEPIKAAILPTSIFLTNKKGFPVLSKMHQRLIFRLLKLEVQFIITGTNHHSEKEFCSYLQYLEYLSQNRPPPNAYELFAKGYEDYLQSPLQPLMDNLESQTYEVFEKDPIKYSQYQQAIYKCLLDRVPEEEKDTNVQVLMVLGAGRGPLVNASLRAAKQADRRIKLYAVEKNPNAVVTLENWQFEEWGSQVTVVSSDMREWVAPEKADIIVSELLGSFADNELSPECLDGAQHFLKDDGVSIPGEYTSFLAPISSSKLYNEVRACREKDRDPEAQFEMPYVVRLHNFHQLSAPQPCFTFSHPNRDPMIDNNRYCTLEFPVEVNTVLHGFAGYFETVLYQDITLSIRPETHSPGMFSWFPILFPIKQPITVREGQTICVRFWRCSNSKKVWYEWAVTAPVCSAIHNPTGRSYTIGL
UniProt Q9BQA1: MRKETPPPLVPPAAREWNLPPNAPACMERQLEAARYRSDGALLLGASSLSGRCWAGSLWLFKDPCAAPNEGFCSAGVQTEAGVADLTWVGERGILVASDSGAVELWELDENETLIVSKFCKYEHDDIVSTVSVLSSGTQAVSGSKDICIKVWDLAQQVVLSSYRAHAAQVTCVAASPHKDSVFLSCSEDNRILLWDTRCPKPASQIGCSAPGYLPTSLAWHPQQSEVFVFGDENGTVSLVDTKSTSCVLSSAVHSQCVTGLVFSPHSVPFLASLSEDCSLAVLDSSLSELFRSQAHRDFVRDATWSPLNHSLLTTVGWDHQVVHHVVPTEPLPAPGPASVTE

Experiments:
[1] = molecular target: HA-MAVS (human) (UniProt Q7Z434); test: co-IP; HEK293T co-transfected with tagged plasmids, harvested 36 h after transfection (with or without SeV); IP buffer with 1% Triton X-100; anti-FLAG M2 affinity gel or anti-HA agarose, 4 h at 4 °C; immunoblot
[2] = molecular target: T1, endogenous RIG-I (human (endogenous in HEK293T)) (UniProt O95786); test: co-IP; endogenous proteins in HEK293T (WT or WDR77-/-) with or without SeV or VSV, time course 0-32 h; protein G Plus-agarose with 1 µg antibody, 4 h; immunoblot
T1 sequence: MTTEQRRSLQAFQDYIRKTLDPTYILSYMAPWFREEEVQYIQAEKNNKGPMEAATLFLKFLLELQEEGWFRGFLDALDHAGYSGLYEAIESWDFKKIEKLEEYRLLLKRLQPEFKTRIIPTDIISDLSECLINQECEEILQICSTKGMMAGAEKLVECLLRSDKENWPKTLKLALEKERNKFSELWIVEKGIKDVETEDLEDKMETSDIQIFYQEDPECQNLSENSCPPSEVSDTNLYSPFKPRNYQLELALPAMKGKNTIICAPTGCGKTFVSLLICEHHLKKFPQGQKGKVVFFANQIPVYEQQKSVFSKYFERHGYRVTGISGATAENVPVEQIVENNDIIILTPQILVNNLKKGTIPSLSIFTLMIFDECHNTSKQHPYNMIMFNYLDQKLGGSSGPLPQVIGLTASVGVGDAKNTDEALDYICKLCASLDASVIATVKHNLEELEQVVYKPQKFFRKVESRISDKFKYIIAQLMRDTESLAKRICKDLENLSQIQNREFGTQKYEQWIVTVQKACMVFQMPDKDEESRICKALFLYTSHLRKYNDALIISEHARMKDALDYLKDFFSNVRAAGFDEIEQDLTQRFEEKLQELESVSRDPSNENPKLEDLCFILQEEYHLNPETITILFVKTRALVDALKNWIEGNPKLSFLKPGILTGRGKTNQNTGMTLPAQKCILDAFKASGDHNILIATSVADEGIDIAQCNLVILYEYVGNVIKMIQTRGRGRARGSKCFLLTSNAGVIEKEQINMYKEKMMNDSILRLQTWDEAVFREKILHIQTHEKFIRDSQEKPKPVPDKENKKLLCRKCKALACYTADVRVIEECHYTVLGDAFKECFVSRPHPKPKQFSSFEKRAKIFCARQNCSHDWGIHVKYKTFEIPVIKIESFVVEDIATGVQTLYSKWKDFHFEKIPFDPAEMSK

[3] = molecular target: T2, endogenous MDA5 (human (endogenous in HEK293T)) (UniProt Q9BYX4); test: as above
T2 sequence: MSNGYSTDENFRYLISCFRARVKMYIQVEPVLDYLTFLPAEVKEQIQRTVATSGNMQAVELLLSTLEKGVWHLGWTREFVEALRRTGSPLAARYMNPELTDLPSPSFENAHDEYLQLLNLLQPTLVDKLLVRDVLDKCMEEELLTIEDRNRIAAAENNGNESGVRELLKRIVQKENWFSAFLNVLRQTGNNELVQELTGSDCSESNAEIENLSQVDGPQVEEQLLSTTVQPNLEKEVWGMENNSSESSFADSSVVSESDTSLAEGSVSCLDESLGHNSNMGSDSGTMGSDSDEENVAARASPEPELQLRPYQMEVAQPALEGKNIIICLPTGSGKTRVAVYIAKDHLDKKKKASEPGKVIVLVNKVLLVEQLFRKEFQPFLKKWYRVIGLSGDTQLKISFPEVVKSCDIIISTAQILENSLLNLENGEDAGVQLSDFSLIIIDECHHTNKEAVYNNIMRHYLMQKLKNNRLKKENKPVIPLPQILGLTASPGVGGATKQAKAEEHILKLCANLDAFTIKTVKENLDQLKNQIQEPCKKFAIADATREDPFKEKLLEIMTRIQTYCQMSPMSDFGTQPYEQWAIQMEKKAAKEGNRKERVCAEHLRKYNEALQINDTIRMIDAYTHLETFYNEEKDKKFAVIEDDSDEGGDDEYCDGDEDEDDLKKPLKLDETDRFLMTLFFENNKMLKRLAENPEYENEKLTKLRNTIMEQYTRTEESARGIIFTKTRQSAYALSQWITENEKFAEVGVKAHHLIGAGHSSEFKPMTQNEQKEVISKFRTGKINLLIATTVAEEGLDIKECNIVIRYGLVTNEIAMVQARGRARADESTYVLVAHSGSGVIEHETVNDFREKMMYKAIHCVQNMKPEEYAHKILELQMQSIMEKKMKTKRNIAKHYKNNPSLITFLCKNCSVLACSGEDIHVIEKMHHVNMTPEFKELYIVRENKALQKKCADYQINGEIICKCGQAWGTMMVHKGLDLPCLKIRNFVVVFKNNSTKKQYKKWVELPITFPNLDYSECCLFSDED

[4] = molecular target: TRAF5 (UniProt O00463); test: co-IP; HEK293T co-transfected with tagged plasmids, harvested 36 h after transfection (with or without SeV); IP buffer with 1% Triton X-100; anti-FLAG M2 affinity gel or anti-HA agarose, 4 h at 4 °C; immunoblot
[5] = molecular target: T3, TBK1 (human) (UniProt Q9UHD2); test: as above
T3 sequence: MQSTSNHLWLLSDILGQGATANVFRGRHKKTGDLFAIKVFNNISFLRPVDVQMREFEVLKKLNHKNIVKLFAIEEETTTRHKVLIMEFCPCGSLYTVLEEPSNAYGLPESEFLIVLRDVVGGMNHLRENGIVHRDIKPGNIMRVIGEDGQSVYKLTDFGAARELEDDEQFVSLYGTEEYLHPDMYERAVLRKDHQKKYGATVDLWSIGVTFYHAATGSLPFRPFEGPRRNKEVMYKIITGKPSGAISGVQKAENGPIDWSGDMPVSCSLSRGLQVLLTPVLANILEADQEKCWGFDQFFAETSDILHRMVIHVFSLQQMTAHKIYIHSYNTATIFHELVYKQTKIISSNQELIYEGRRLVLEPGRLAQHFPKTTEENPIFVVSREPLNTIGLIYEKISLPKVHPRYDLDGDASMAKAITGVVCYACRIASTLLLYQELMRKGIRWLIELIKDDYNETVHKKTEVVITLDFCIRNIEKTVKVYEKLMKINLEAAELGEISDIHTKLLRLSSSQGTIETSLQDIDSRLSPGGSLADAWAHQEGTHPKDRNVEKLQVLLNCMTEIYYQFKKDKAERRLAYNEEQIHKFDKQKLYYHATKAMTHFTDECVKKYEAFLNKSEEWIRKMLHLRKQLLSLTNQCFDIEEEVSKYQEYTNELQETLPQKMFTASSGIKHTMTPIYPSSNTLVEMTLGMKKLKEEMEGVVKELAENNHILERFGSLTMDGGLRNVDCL

[6] = molecular target: T4, TRAF2 (UniProt Q12933); test: as above
T4 sequence: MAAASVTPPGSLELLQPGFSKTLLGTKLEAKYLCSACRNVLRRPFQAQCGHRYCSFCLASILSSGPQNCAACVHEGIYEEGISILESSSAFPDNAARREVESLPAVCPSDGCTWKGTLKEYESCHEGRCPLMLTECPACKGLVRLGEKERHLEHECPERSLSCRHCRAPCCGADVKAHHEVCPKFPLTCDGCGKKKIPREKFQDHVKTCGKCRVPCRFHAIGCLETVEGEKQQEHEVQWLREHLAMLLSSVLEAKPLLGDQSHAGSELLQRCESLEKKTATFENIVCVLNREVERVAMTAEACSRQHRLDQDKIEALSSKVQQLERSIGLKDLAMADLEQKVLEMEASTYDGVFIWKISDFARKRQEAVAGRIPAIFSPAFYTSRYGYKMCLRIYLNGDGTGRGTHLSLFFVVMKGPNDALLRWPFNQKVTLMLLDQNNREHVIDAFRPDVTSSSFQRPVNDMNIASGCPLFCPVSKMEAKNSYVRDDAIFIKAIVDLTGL

[7] = molecular target: T5, RIG-I (human) (UniProt O95786); test: as above
T5 sequence: T1 sequence

binding [1]: binds
Substance: Flag-PRMT5 (from UniProt O14744 1-637)

binding [2]: no binding | binding [3]: no binding
Substance: endogenous WDR77 (from UniProt Q9BQA1 1-342)

binding [4]: no binding | binding [5]: no binding | binding [6]: no binding | binding [7]: no binding
Substance: HA-WDR77 (from UniProt Q9BQA1 1-342)
